# Laboratory results: the supplement of paper PMC9135407
# Where “and” joins values, the source holds several entries; their conditions need not be identical. Equal entries are not always repeated. Structures can show the parent of a compound that is named as a salt. ± gives the standard deviation of the averaged measurements. The list shows a part of the results. Part of the spread comes from offsets between plates or batches.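 Assay uses culture-activated primary human stellate myofibroblasts; lipid droplet recovery indicates inactivation. Measured: proportion of Hoechst-counted cells over a plate-specific Bodipy cutoff, duplicate wells, DMSO and nortriptyline as per-plate negative and positive controls. A hit scores, control-normalized, above the plate's top-tenth-percentile nortriptyline wells or ranks among its three best wells. Final well concentrations not reported.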
# Test system: primary human hepatic stellate cells (donor 1)
# Experiment: percent Bodipy-positive cells; higher = more lipid droplet accumulation
# Conditions: 48 h
# [1] = library stock concentration: 1 mM
# [2] = library stock concentration: 3.33 mM
# [3] = library stock concentration: 10 mM
# [4] = library stock concentration: 80 uM
# [5] = library stock concentration: 400 uM
# [6] = library stock concentration: 2 mM
smiles,measurement,setting,value
O=c1cc(-c2ccccc2)oc2cc(O)c(O)c(O)c12 [Baicalein],percent Bodipy-positive cells,[1],16.7 ± 2.7%
same,percent Bodipy-positive cells,[2],4.52 ± 1.8%
CC(C)CCCC(C)N (stereo not drawn) [Octodrine],percent Bodipy-positive cells,library stock concentration: 15.5 mM,5.2 ± 1.8%
Br.Br.CN(CCc1ccc(Cl)c(Cl)c1)CCN1CCCC1 [BD 1008 dihydrobromide],percent Bodipy-positive cells,[3],57.8 ± 3.8%
N[C@@H](CCCC(=O)O)C(=O)O [L-2-aminoadipic acid],percent Bodipy-positive cells,[3],59.6 ± 0.68%
CN(C)CCn1nnnc1SCC1=C(C(=O)O)N2C(=O)[C@@H](NC(=O)Cc3csc(N)n3)[C@H]2SC1 [Cefotiam hydrochloride],percent Bodipy-positive cells,,39.6 ± 27%
O=C(O)Cc1cccc(OCCCN(Cc2cccc(C(F)(F)F)c2Cl)CC(c2ccccc2)c2ccccc2)c1,percent Bodipy-positive cells,[2],20.1 ± 3.5%
same,percent Bodipy-positive cells,[3],26.57 ± 0.08%
O=C(O)Cc1cccc(OCCCN(Cc2cccc(C(F)(F)F)c2Cl)CC(c2ccccc2)c2ccccc2)c1 [GW 3965 hydrochloride],percent Bodipy-positive cells,[3],9.47 ± 2.8%
"O=c1cc(-c2ccccc2)[nH]c2nc(Cl)ccc12 [7-Chloro-4-hydroxy-2-phenyl-1,8-naphthyridine]",percent Bodipy-positive cells,[3],40.8 ± 3.3%
O=c1[nH]c(=O)c2nc3ccccc3nc2[nH]1 [Alloxazine],percent Bodipy-positive cells,[3],35.3 ± 9.5%
N#C/C(=C\c1ccc(O)c(O)c1)C(=O)NCCc1ccccc1 [Tyrphostin AG 698],percent Bodipy-positive cells,[3],31 ± 6.4%
CC(=O)O[C@H]1C[C@@]2(C)[C@@H](C[C@@H](O)[C@H]3[C@@]4(C)CC[C@@H](O)[C@@H](C)[C@@H]4CC[C@@]32C)/C1=C(\CCC=C(C)C)C(=O)O [Fusidic acid sodium],percent Bodipy-positive cells,[3],38.3 ± 11%
CC(=O)O[C@H]1C[C@@]2(C)[C@@H](C[C@@H](O)[C@H]3[C@@]4(C)CC[C@@H](O)[C@@H](C)[C@@H]4CC[C@@]32C)/C1=C(\CCC=C(C)C)C(=O)O [Fusidic acid sodium salt],percent Bodipy-positive cells,,25.9 ± 4.2%
CC(=O)O[C@H]1C[C@@]2(C)[C@@H](C[C@@H](O)[C@H]3[C@@]4(C)CC[C@@H](O)[C@@H](C)[C@@H]4CC[C@@]32C)/C1=C(\CCC=C(C)C)C(=O)O [Fusidic acid],percent Bodipy-positive cells,[3],12.5 ± 1.1%
CC(=O)N[C@@H](CS)C(=O)O [Acetylcysteine],percent Bodipy-positive cells,[2],9.41 ± 3.7%
same,percent Bodipy-positive cells,[3],15.1% and 10.7%
same,percent Bodipy-positive cells,library stock concentration: 12.3 mM,2.16 ± 0.46%
CC(=O)N[C@@H](CS)C(=O)O [N-Acetyl-L-Cysteine],percent Bodipy-positive cells,[3],52.4 ± 12%
C[C@]1(c2nc3c(C(N)=O)cccc3[nH]2)CCCN1 [Veliparib],percent Bodipy-positive cells,[4],28 ± 19%
same,percent Bodipy-positive cells,[5],31.4 ± 16%
same,percent Bodipy-positive cells,[6],33.5 ± 23%
same,percent Bodipy-positive cells,[3],33.5 ± 24%
C[C@]1(c2nc3c(C(N)=O)cccc3[nH]2)CCCN1 [Veliparib (ABT-888)],percent Bodipy-positive cells,[2],9.95 ± 7.4%
same,percent Bodipy-positive cells,[3],25.6 ± 5.1%
"CCCCCC(=O)CC[C@H]1C(=O)C[C@H](O)[C@@H]1C/C=C\CCCC(=O)O [13,14-dihydro-15-keto Prostaglandin D2]",percent Bodipy-positive cells,[1],8.37 ± 1.1%
O=C(O)CCC/C=C\C[C@H]1C(=O)C[C@@H](O)[C@@H]1/C=C/[C@@H](O)Cc1ccccc1 [16-phenyl tetranor Prostaglandin E2],percent Bodipy-positive cells,[1],17.9 ± 6.3%
CNCCCC12CCC(c3ccccc31)c1ccccc12 [Maprotiline HCl],percent Bodipy-positive cells,[2],59 ± 5.6%
CNCCCC12CCC(c3ccccc31)c1ccccc12 [Maprotilline HCl],percent Bodipy-positive cells,[3],97.36 ± 0.96%
CCc1c(O)cc(O)c(C(=O)c2ccc(OCCN3CCOCC3)c(OC)c2)c1CC(=O)N(CCOC)CCOC,percent Bodipy-positive cells,[2],60.9 ± 6.9%
same,percent Bodipy-positive cells,[3],63.2 ± 1.2%
CC[C@H]1OC(=O)C[C@@H](O)[C@H](C)[C@@H](O[C@@H]2O[C@H](C)[C@@H](O)[C@H](N(C)C)[C@H]2O)[C@@H](CCN2C[C@H](C)C[C@H](C)C2)C[C@@H](C)C(=O)/C=C/C(C)=C/[C@@H]1CO[C@@H]1O[C@H](C)[C@@H](O)[C@@H](OC)[C@H]1OC [Tilmicosin],percent Bodipy-positive cells,library stock concentration: 2.3 mM,24.8 ± 5.8%
same,percent Bodipy-positive cells,[2],30.4 ± 3.6%
same,percent Bodipy-positive cells,[3],83.8 ± 0.71%
O=C1Cc2c([nH]c3ccc(Br)cc23)-c2ccccc2N1 [Kenpaullone],percent Bodipy-positive cells,[1],10.2 ± 1.3%
same,percent Bodipy-positive cells,[2],19.9 ± 1.8%
Cc1coc2c1C(=O)C(=O)c1c-2ccc2c1CCCC2(C)C [Tanshinone IIA],percent Bodipy-positive cells,[2],27.1 ± 17%
same,percent Bodipy-positive cells,[3],54.9 ± 6.6%
same,percent Bodipy-positive cells,library stock concentration: 17 mM,27.2 ± 3.9%
Cc1coc2c1C(=O)C(=O)c1c-2ccc2c1CCCC2(C)C [Tanshinone iia],percent Bodipy-positive cells,library stock concentration: 6.8 mM,36.9 ± 3%
COc1ccc2c(c1)c(CC(=O)N1CCOCC1)c(C)n2C(=O)c1ccc(Cl)cc1,percent Bodipy-positive cells,[1],23.2 ± 15%
same,percent Bodipy-positive cells,[2],8.76 ± 3.2%
same,percent Bodipy-positive cells,[3],22% and 7.66%
CC(C)(C)n1nc(-c2cccc3ccccc23)c2c(N)ncnc21 [1-Naphthyl PP1],percent Bodipy-positive cells,[3],5.01 ± 1.7%
OC(c1cc(C(F)(F)F)nc2c(C(F)(F)F)cccc12)C1CCCCN1 (stereo not drawn) [Mefloquine hydrochloride],percent Bodipy-positive cells,,80.2 ± 7.8%
same,percent Bodipy-positive cells,[3],98.5 ± 0.37%
OC(c1cc(C(F)(F)F)nc2c(C(F)(F)F)cccc12)C1CCCCN1 (stereo not drawn) [Mefloquine HCl],percent Bodipy-positive cells,[2],67.8 ± 8.5%
same,percent Bodipy-positive cells,[3],83.1 ± 6.2%
OC(c1cc(C(F)(F)F)nc2c(C(F)(F)F)cccc12)C1CCCCN1 (stereo not drawn) [Mefloquine],percent Bodipy-positive cells,library stock concentration: 4.8 mM,81.2 ± 2.2%
same,percent Bodipy-positive cells,[3],72.1 ± 11%
CC[C@@H]1C(=O)N(C)c2cnc(Nc3ccc(C(=O)NC4CCN(C)CC4)cc3OC)nc2N1C1CCCC1,percent Bodipy-positive cells,[5],82.4 ± 1.4%
C[C@@H]1C[C@H]2[C@@H]3C[C@H](F)C4=CC(=O)C=C[C@]4(C)[C@@]3(Cl)[C@@H](O)C[C@]2(C)[C@H]1C(=O)COC(=O)C(C)(C)C [Clocortolone pivalate],percent Bodipy-positive cells,,6.08 ± 2.2%
Nc1nc(Cl)nc2c1ncn2[C@@H]1O[C@H](COP(=O)(O)OP(=O)(O)OP(=O)(O)O)[C@H](O)C1O (stereo partly drawn) [2-Chloroadenosine triphosphate tetrasodium],percent Bodipy-positive cells,[3],70.2 ± 5.1%
CN(C)Cc1cccc(N=C(c2ccccc2)c2c(O)[nH]c3cc(C(=O)N(C)C)ccc23)c1,percent Bodipy-positive cells,[4],17.8 ± 7.6%
same,percent Bodipy-positive cells,[5],19.5 ± 0.27%
same,percent Bodipy-positive cells,[6],26 ± 6.6%
same,percent Bodipy-positive cells,[2],29.1 ± 1.7%
same,percent Bodipy-positive cells,[3],59.5% and 69.8%
NC[C@@H](O)c1ccc(O)c(O)c1 [L(-)-Norepinephrine bitartrate],percent Bodipy-positive cells,[3],51.7 ± 15%
CC1(C)C[C@@H]1C(=O)N/C(=C\CCCCSC[C@H](N)C(=O)O)C(=O)O,percent Bodipy-positive cells,[3],9.95 ± 0.93%
CC1(C)C[C@@H]1C(=O)N/C(=C\CCCCSC[C@H](N)C(=O)O)C(=O)O [Cilastatin sodium],percent Bodipy-positive cells,[3],5.92 ± 0.55%
Cc1cc(Cn2cnc3c2C[C@@H](C(=O)O)N(C(=O)C(c2ccccc2)c2ccccc2)C3)ccc1N,percent Bodipy-positive cells,[3],39.8 ± 9.6%
O=C(O)CCC(=O)O.O=C(O[C@H]1CN2CCC1CC2)N1CCc2ccccc2[C@@H]1c1ccccc1 [Solifenacin succinate],percent Bodipy-positive cells,[3],93.3 ± 1.8%
Oc1cc2c(cc1O)CN(C(=S)NCCc1ccc(Cl)cc1)CCC2 [Capsazepine],percent Bodipy-positive cells,[1],5.15 ± 1.6%
same,percent Bodipy-positive cells,[3],31.5% and 7.57%
CCCCCC(=O)O[C@]1(C(C)=O)CC[C@H]2[C@@H]3CCC4=CC(=O)CC[C@]4(C)[C@H]3CC[C@@]21C [Hydroxyprogesterone caproate],percent Bodipy-positive cells,library stock concentration: 4.7 mM,2.15 ± 0.96%
same,percent Bodipy-positive cells,[3],23 ± 2%
NS(=O)(=O)C#Cc1ccccc1 [Pifithrin-mu],percent Bodipy-positive cells,[3],99.25 ± 0.66%
Cn1cc(C(=O)OCC2CCN(CCNS(C)(=O)=O)CC2)c2ccccc21,percent Bodipy-positive cells,[3],92.4 ± 3%
Cc1cc(C)cc(OCC2CNC(=O)O2)c1 (stereo not drawn) [Metaxalone],percent Bodipy-positive cells,library stock concentration: 9 mM,13.4 ± 2.2%
same,percent Bodipy-positive cells,[3],45.2 ± 5.7%
CC(=O)O[C@H]1C[C@@H]2CC[C@@H]3[C@H](CC[C@@]4(C)[C@H]3C[C@H]([N+]3(C)CCCCC3)[C@@H]4OC(C)=O)[C@@]2(C)C[C@@H]1N1CCCCC1,percent Bodipy-positive cells,[3],6.11 ± 0.85%
CC(=O)O[C@H]1C[C@@H]2CC[C@@H]3[C@H](CC[C@@]4(C)[C@H]3C[C@H]([N+]3(C)CCCCC3)[C@@H]4OC(C)=O)[C@@]2(C)C[C@@H]1N1CCCCC1 [Vecuronium Bromide],percent Bodipy-positive cells,[2],7.74 ± 2.9%
same,percent Bodipy-positive cells,[3],12.7 ± 6.1%
O=C(O)CCNc1cc(N2CCc3ccccc3CC2)nc(-c2cccnc2)n1,percent Bodipy-positive cells,[4],29.3 ± 0.64%
same,percent Bodipy-positive cells,[5],40.5 ± 2%
same,percent Bodipy-positive cells,[6],41.1 ± 3.4%
same,percent Bodipy-positive cells,[3],47.6 ± 4.4%
CC1(C)C(=O)N=C2C1=C(O)C(=O)c1ccccc12,percent Bodipy-positive cells,[3],77.9 ± 1%
CCCCCCCC/C=C\CCCCCCCC(=O)NCCO [N-Oleoylethanolamine],percent Bodipy-positive cells,[3],54.3 ± 2.6%
CCCCCCCC/C=C\CCCCCCCC(=O)NCCO [Oleoyl Ethanolamide],percent Bodipy-positive cells,[1],6.78 ± 0.27%
CCCCCCCC/C=C\CCCCCCCC(=O)NCCO [Oleylethanolamide],percent Bodipy-positive cells,[3],17.9 ± 4.9%
Cc1nc(Nc2ncc(C(=O)Nc3c(C)cccc3Cl)s2)cc(N2CCN(CCO)CC2)n1,percent Bodipy-positive cells,[6],74.4 ± 9%
same,percent Bodipy-positive cells,[3],96.9 ± 1.7%
C[C@@H](O)[C@H]1C(=O)N2C(C(=O)O)=C(S[C@@H]3CN[C@H](C(=O)N(C)C)C3)[C@H](C)[C@H]12 [Meropenem],percent Bodipy-positive cells,,10.1 ± 2.5%
same,percent Bodipy-positive cells,[2],4.49 ± 1.1%
same,percent Bodipy-positive cells,library stock concentration: 5.2 mM,8.49 ± 1.6%
same,percent Bodipy-positive cells,[3],10.9 ± 5%
C[C@@H](O)[C@H]1C(=O)N2C(C(=O)O)=C(S[C@@H]3CN[C@H](C(=O)N(C)C)C3)[C@H](C)[C@H]12,percent Bodipy-positive cells,[3],10 ± 2.2%
CC(=O)NCC(=O)N[C@H](CCC(=O)O)C(=O)O [N-Acetylglycyl-D-glutamic acid],percent Bodipy-positive cells,[3],7.86 ± 0.52%
CCN(CC)C(=O)/C(C#N)=C/c1cc(O)c(O)c([N+](=O)[O-])c1 [Entacapone],percent Bodipy-positive cells,[2],11.8 ± 2.6%
same,percent Bodipy-positive cells,library stock concentration: 6.6 mM,13.3 ± 3.4%
same,percent Bodipy-positive cells,[3],42.1 ± 4.3%
C[C@@H]1O[C@@H](OC[C@H]2O[C@@H](Oc3c(-c4ccc(OCCO)c(OCCO)c4)oc4cc(OCCO)cc(O)c4c3=O)[C@H](O)[C@@H](O)[C@@H]2O)[C@H](O)[C@H](O)[C@H]1O [Troxerutin],percent Bodipy-positive cells,[2],7.45 ± 0.6%
same,percent Bodipy-positive cells,[3],20.9% and 30.8%
C[C@]12C=CC(=O)C=C1CC[C@H]1[C@@H]3C[C@@H](O)[C@](O)(C(=O)CO)[C@@]3(C)C[C@H](O)[C@@]12F [Triamcinolone],percent Bodipy-positive cells,,19.8 ± 7.3%
same,percent Bodipy-positive cells,[2],10.7 ± 6.1%
same,percent Bodipy-positive cells,library stock concentration: 5.1 mM,4.03% and 8.1%
same,percent Bodipy-positive cells,[3],18.2% and 24.8% and 21.4%
CC1(C)O[C@@H]2C[C@H]3[C@@H]4CCC5=CC(=O)CC[C@]5(C)[C@@]4(F)[C@@H](O)C[C@]3(C)[C@]2(C(=O)CCl)O1 [Halcinonide],percent Bodipy-positive cells,,5.96 ± 0.69%
same,percent Bodipy-positive cells,[2],5.89 ± 3.3%
same,percent Bodipy-positive cells,[3],22.5%
CC(C(C)N1CC(=O)NC(=O)C1)N1CC(=O)NC(=O)C1 (stereo not drawn),percent Bodipy-positive cells,library stock concentration: 17.7 mM,18.2 ± 5%
Nc1c(CC(=O)O)cccc1C(=O)c1ccc(Br)cc1 [Bromfenac Sodium],percent Bodipy-positive cells,[2],8.99 ± 1%
same,percent Bodipy-positive cells,[3],18.3 ± 4.4%
O=C(O)C=C1CCCc2ccccc2C1O (stereo not drawn),percent Bodipy-positive cells,[3],24.6% and 5.62%
COc1cccc(Nc2c(C(N)=O)cnc3c(C)cc(S(=O)(=O)c4cccc(C(=O)N(C)C)c4)cc23)c1,percent Bodipy-positive cells,[2],8.02 ± 5.5%
same,percent Bodipy-positive cells,[3],13.8 ± 3.5%
